From patent US20050227302A1, “Induction of apoptosis via ARTS-IAP complexes” (priority 2004, published 2005)
No constants are given. Whether binding was seen depends on the method and setting. In cells and extracts the contact can be indirect. Some entries that bind do so weakly or less than the wild type. For part of these data: Where a sequence is shown, tags or fusion partners need not be part of it. Values belong to the binder of their own block, whether it stands above or below them.

Protein sequences, listed by entry. Tags and fused reporters are not part of them. Lines headed by an entry give the natural chain unless they say otherwise; changes in a name come on top.
UniProt P98170: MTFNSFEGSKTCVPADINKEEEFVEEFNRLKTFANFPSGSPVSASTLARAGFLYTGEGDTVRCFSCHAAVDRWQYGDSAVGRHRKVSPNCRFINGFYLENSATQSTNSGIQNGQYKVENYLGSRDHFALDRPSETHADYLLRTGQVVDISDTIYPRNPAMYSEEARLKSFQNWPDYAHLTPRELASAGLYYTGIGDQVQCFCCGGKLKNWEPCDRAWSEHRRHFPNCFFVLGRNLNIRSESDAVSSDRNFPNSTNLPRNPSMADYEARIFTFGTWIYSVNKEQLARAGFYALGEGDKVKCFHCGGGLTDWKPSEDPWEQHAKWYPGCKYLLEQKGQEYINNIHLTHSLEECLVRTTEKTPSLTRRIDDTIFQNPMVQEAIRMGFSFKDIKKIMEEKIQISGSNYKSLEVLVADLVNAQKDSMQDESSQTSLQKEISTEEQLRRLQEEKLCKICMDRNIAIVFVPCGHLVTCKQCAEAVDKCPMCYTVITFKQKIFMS

Assays:
[1] = biological target: Myc epitope-tagged wild-type XIAP (Homo sapiens (Human)) (UniProt P98170); test: GST-ARTS pull-down from lysate of COS-7 cells transfected with myc-tagged XIAP, Western blot (FIG. 3A-B)
[2] = biological target: Myc epitope-tagged wild-type XIAP (Homo sapiens (Human)) (UniProt P98170); test: GST-ARTS pull-down from lysate of COS-7 cells transfected with mycXIAP, Western blot
[3] = biological target: GST-XIAP fusion protein (Homo sapiens (Human)) (UniProt P98170); test: GST-XIAP pull-down of in vitro translated ARTS, Western blot with anti-ARTS; GST alone as negative control
[4] = biological target: GST-XIAP fusion protein (Homo sapiens (Human)) (UniProt P98170); test: GST-XIAP pull-down of in vitro translated ARTS, Western blot
[5] = biological target: GST-XIAP fusion protein (Homo sapiens (Human)) (UniProt P98170); test: GST-XIAP pull-down from lysate of COS-7 cells transfected with AU5-ARTS, Western blot
[6] = biological target: GST-XIAP fusion protein (Homo sapiens (Human)) (UniProt P98170); test: GST-XIAP pull-down from lysate of COS-7 cells transfected with AU5-ARTS, Western blot with anti-AU5 (FIG. 3C)

- binding [1]: binds
- binding [2]: binds
B1: GST-ARTS fusion protein (protein, not shown: a dimerising Fc or GST)
chain: MIKRFLEDTTDDGELSKFVKDFSGNASCHPPEAKTWASRPQVPEPRPQAPDLYDDDLEFRPPSRPQSSDNQQYFCAPAPLSPSARPRSPWGKLDPYDSSEDDKEYVGFATLPNQVHRKSVKKGFDFTLMVAGESGLGKSTLVNSLFLTDLYRDRKLLGAEERIMQTVEITKHAVDIEEKGVRLRLTIVDTPGFGDAVNNTECWKPVAEYIDQQFEQYFRDESGLNRKNIQDNRVHCCLYFISPFGHGYGPSLRLLAPPGAVKGTGQEHQGQGCH

- binding [3]: binds
- binding [4]: binds
B2: Recombinant ARTS protein (TNT-Quick Coupled Transcription/Translation System) (protein)
chain: MIKRFLEDTTDDGELSKFVKDFSGNASCHPPEAKTWASRPQVPEPRPQAPDLYDDDLEFRPPSRPQSSDNQQYFCAPAPLSPSARPRSPWGKLDPYDSSEDDKEYVGFATLPNQVHRKSVKKGFDFTLMVAGESGLGKSTLVNSLFLTDLYRDRKLLGAEERIMQTVEITKHAVDIEEKGVRLRLTIVDTPGFGDAVNNTECWKPVAEYIDQQFEQYFRDESGLNRKNIQDNRVHCCLYFISPFGHGYGPSLRLLAPPGAVKGTGQEHQGQGCH

- binding [5]: binds
- binding [6]: binds
B3: AU5-ARTS (other)
chain: MIKRFLEDTTDDGELSKFVKDFSGNASCHPPEAKTWASRPQVPEPRPQAPDLYDDDLEFRPPSRPQSSDNQQYFCAPAPLSPSARPRSPWGKLDPYDSSEDDKEYVGFATLPNQVHRKSVKKGFDFTLMVAGESGLGKSTLVNSLFLTDLYRDRKLLGAEERIMQTVEITKHAVDIEEKGVRLRLTIVDTPGFGDAVNNTECWKPVAEYIDQQFEQYFRDESGLNRKNIQDNRVHCCLYFISPFGHGYGPSLRLLAPPGAVKGTGQEHQGQGCH
notes: Expressed in transfected COS-7 cells and used as lysate or stained in cells; also called pEF1-AU5-ARTS; AU5-tagged ARTS; not shown: AU5 tag attached to the N' terminus of ARTS
